{"source": "patent US11124523B2", "about": "“2,6-dioxaspiro [4,5] decane derivatives and preparation method therefor and pharmaceutical applications thereof” (SHANDONG LUYE PHARMACEUTICAL CO., LTD., priority 2017, dated 2021)", "origin": "cited, not measured here", "conditions": "published Phase 2 clinical trial data; cited from earlier work", "note": "At least one compound was matched to its structure with a doubt left.", "data": [{"smiles": "COc1ccsc1CNCC[C@@]1(c2ccccn2)CCOC2(CCCC2)C1", "note": "[compound 1, Oliceridine, reference compound]", "values": [{"measurement": "analgesic effect, Phase 2 clinical trial (in words)", "value": "good analgesic effect"}]}]}
